The values that follow come from paper PMC7348807.

pKd: −log10 of the molar value. Construct, isoform or probe ends are uncertain for at least one entry.

The subject of the data set is thrombin. The experiment in a line: binding assay. Conditions: earlier estimate for the same aptamer-thrombin system; PBS with 0.02% sodium azide and 1 mg/mL BSA; incubation 2 h (50 pM, 1 nM FA) or 6.5 h (10 pM FA); thrombin 5 pM to 1 uM; pH and temperature not stated; commercial protein; label: 5' Alexa Fluor 647; folded or branched DNA.

As to AGTCCGTGGTAGGGCAGGTTGGGGTGACT, the pKd was 9.30.
